The experiment deals with ClpA of Paracidovorax citrulli, bacterial two-hybrid fusion (pBT-ClpA) (Paracidovorax citrulli). Briefly: two-hybrid; bacterial two-hybrid in E. coli XL1-Blue MRF' Kan; ClpA in pBT, targets in pTRG (legend and Table 1); growth on selective minimal medium with 5 mM 3-amino-1,2,4-triazole and streptomycin, 48 h at 28°C.

Chains of the proteins cited; added tags and fusions are not shown.
UniProt A1TLI0: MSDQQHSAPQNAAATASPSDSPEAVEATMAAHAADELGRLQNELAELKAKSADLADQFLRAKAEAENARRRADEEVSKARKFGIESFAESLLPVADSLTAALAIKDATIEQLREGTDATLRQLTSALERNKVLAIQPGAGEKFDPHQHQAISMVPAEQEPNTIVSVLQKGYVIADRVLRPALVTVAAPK

Results are given in words; binding and its absence hold for the method and conditions named.

As for “GrpE of Paracidovorax citrulli, bacterial two-hybrid fusion (pTRG-GrpE) (from UniProt A1TLI0 1-189)”, the binding result was “no binding”.

(Values after publication PMC11300334.)
